The values that follow come from patent US20120282637A1.

No constants are given. Whether binding was seen depends on the method and setting. Binding calls can cover weak binding; strength is not graded here.

B1: 56 RAGE-1 (antibody, V domains shown)
VH: QVQLQQSGPELVKPGASVRISCKASGYTFTSYFIHWVKQRPGQGLEWIGWIYPGNVNTKYNEKFKDKATLTADKSSSTAYMQLSNLTSEDSAVYFCVRGQLGDYWGQGITLTVSS
VL: DIVMTQSQKFMSTSVGDRVSVTCKASQNVGINVAWYQQKPGQSPKALIYSASYRYSGVPDRFTGSGSGTDFTLIISNVQSEDLAEYFCQQYNNYPRTFGGGTKLEIK
B2: 253 RAGE-1 (antibody, V domains shown)
VH: QVQLQQSGPELVKPGASVRISCKASGYTFTDYYIHWVKQRPGQGLEWIGWIYPGNVITKYNEKFKGKATLTADKSSSTAYMQLSSLTSEDSAVYFCARYDYDYAMDYWGQGTSVTVSS
VL: DIVMSQSPSSLAVSVGEKVTMSCKSSQTLLYSSNQKNYLAWYQQKPGQSLKLLIYWASTRESGVPDRFAGSGSGTDFTLTISSVKAEDLAVYYCQQYFGYPYTFGGGTKLEIK
B3: 173 RAGE-1 (antibody, V domains shown)
VH: EVKLEESGGGLVQPGGSMKLSCVASGFTFSNYWMNWVRQSPEKGLEWVAEIRLKSNNYATHYAESVKGRFTISRDDSKSSVYLQMNDLRAEDPGIYYCIRDYGNYAMDHWGQGTSVTVSS
VL: DIVMTQSQKFMSTSVGDRVSVTCKASQNVGTNVAWYQQKPGQSPKALIYSASYRYSGVPDRFTGSGSGTDFTLTISNVQSEDLAEYFCQQYNSYPLTFGAGTKLELK
B4: 250 RAGE-1 (antibody, V domains shown)
VH: EVKLEESGGGLVQPGGSMKLSCVASGFTFSNYWMNWVRQSPEKGLEWVAEIRLKSNNYATHYAESVKGRFTISRDDSKSSVYLQMNNLRAEDTGIYFCIRDYGNYAMDYWGQGTSVTVSS
VL: DIVMTQSQKFMSTSVGDRVSVTCKASQNVGTNVAWYQQKPGQSPKALIYSASYRYSGVPDRFTGSGSGTDFTLTISNVQSEDLAEFFCQQYNSYPLTFGAGTKLELK
B5: 152 RAGE-1 (antibody, V domains shown)
VH: DVQLQESGPDLVKPSQSLSLTCTVTGYSITSGYSWHWIRQFPGNKLEWMGYIHYSGSTNYNPSLKSRISITRDTSKNQFFLQLNSVTTEDTATYYCARGGDFAYWGQGTLVTVSA
VL: DIVLTQSPASLAVSLGQRATISCRASKSVGTSDSSYMHWYQQKPGQPPKLLIYLASNLESGVPARFSGSGSGTDFTLNIHPVEEEDAATYYCQHSRELYTFGGGTKLEIK
B6: 158 RAGE-1 (antibody, V domains shown)
VH: QIQLVQSGPELKKPGETVKISCKASGYTFTDYSMHWVKQAPGKGLKWMGWINTETGEPTYADDFKGRFAFSLETSASTAYLLINNLKTEDTATYFCARDYLYYYAMDYWGQGTSVTVSS
VL: DVVLTQTPLSLPVNIGDQASISCKSTKSLLNSDGFTYLDWYLQKPGQSPQLLIYLVSNRFSGVPDRFSGSGSGTDFTLKISRVEAEDLGVYYCFQSNYLPLTFGGGTKVEIK
B7: 240 RAGE-1 (antibody, V domains shown)
VH: QIQLVQSGPELKKPGETVKISCKASGYTFTDYSMHWVKQAPGKGLKWMGWINTETGEPTYADDFKGRFAFSLETSASTAYLQINNLKNEDTATYFCARDYLYYYAMDYWGQGTSVTVSS
VL: DVVLTQTPLSLPVSIGDQASISCKSTKSLLNSDGFTYLDWYLQKPGQSPQLLIYLVSNRFSGVPDSFSGSGSGTDFTLKISRVEAEDLGVYYCFQSNYFPLTFGGGTTLEIK
B8: 259 RAGE-1 (antibody, V domains shown)
VH: QVQLQQSGAELVRPGTSVKVSCKASGYAFTNYLIDWVNQRPGQGLEWIGVINPGSGGTNYNEKFTGKATLTADKSSSTAYMQLSSLTSDDSAVYFCARRRVDTMDYWGQGTSVTVSS
VL: QAVVTQESALTTSPGETVTLTCRSSTGAVTTSNYANWVQEKPDHLFTGLIGGTNNRAPGVPARFSGSLIGDKAALTITGAQTEDEAIYFCALWYSNHWVFGGGTKLTVL
B9: 95 RAGE-1 (antibody, V domains shown)
VH: QVQLQQPGAELVKPGASVKLSCKASGYTFTSYWMHWVKQRPGQGLEWIGESNPSNGRTNYNEKFKNKATLTVDKSSSTAYMQLSSLTSEDSAVYYCARAPYYGFDYWGQGTTLTVSS
VL: QAVVTQESALTTSPGETVTLTCRSSTGAVTTSNYANWVQEKPDHLFTGLTGGTNNRAPGVPARFSGSLIGDKAALTITGAQTEDEAIYFCALWYSNHWVFGGGTKLTVL
B10: 501-4 RAGE-1 (antibody, V domains shown)
VH: EVMLVDSGGGLVKPGGSLKLSCAASGFTFRSYAMSWVRQTPEKRLEWVATISSGGSYTYYPDSVRGRFTTSRDNGKNTLYLQMSSLRSEDTAMYYCARHGGNYSAWFTYWGQGTLVTVSA
VL: QAVVTQESALTTSPGETVTLTCRSSTGAVTTSNYANWVQEKPDHLFTGLIGGTNNRAPDVPARFSGSLIGDKAALTITGAQTEDEAIYFCALWYSNHWVFGGGTKLTVL
B11: 529 RAGE-1 (antibody, V domains shown)
VH: EIQLQQTGPELVKPGASVKISCKASGYSFTDYIMLWVKQSHGKSLEWIGNINPYYGSTFYNLKFKGKATLTVDKSSSTAYMQLNSLTSEDSAVYYCARSDYWYFDVWGAGTTVTVSS
VL: QAVVTQESALTTSPGETVTLTCRSSTGAVTTSNYANWVQEKPDHLFTGLIGGTNNRSPGVPARFSGSLIGDKAALTITGAQTEDEAIYFCALWYSNHLVFGGGTKLTVL
B12: 283 RAGE-1 (antibody, V domains shown)
VH: QVQLQQSGAELVRPGTSVKVSCKASGYAFTNYLIEWVKQRPGQGLEWIGVINPGSGGTNYSERFKGKATLTADKSSSTAYMQLSSLTSDDSAVYFCASYRYDGGMDYWGQGTSVTVSS
VL: QAVVTQESALTTSPGETVTLTCRSSTGAVTTSNYANWVQEKPDHLFTGLIRGTNNRAPGVPARFSGSLIGDKAALTITGAQTEDEAIYFCALWYSNHWVFGGGTKLTVL
B13: 499 RAGE-1 (antibody, V domains shown)
VH: EVQLQQSGTVLARPGASVKMSCKASGYTFTSYWMHWVKQRPGQGLEWIGAIYPGDSDTYYNQKFKGKAKLTAVTSTSTAYMELSSLTNEDSAVYYCTRNWDYWGQGTTLTVSS
VL: DIVMTQSHKFMSTSVGDRVSITCKASQDVSTAVAWYQQKPGQSPKLLIYSASYRYTGVPDRFTGSGSGTDFTFTISSVQAEDLAVYYCQQHYNTPRTFGGGTKLEIK
B14: 130 RAGE-1 (antibody, V domains shown)
VH: EVQLVESGGGLVKPGGSLKLSCAASGFTFSSYVMSWVRQSPEKRLEWVAEISSGGSYTYYPDTVTGRFTISRDNDKNTLYLEMSSLRSEDTAMYYCARPPYGKDAMDYWGQGTSVTVSS
VL: QIVLTQSPAIMSASPGEKVTMTCSASSSVSYMHWYQQKSGTSPKRWISDTSKLASGVPARFSGSGSGTSYSLTISSMEAEDAATYYCQQWSSNPPTFGGGTKLEIK
B15: 347 RAGE-1 (antibody, V domains shown)
VH: QVQLQQSGAELAKPGASVKMSCRASGYTFTDYWMHWVKQRPGQGLEWIGFINPSTVYTEYIPKFKDKATLTADKSSSTAYMQLSSLTSEDSAVYYCARSDGGWYFDVWGAGTTVTVSS
VL: DIQMTQSSSYLSVSLGGRVTITCKASDRINYWLAWYQQKPGNAPRLLISGATTLETGVPSRFSGSGSGKDYTLSITSLQTEDVATYYCQQYWSTPYTFGGGTKLELK
B16: 210 RAGE-1 (antibody, V domains shown)
VH: EIQLQQTGPELVKPGASVKISCKASGYSFTDYIMVWVKQSHGKSLEWIGTINPYYGSTSYNLKFKGKATLTVDKSSSTANMQLNSLTSEDSAVYYCARLRLYAMDYWGQGTSVTVSS
VL: QAVVTQESALTTSPGETVTLTCRSSTGAVTTSNYANWVQEKPDHLFTGLIGGTNNRAPGVPARFSGSLIGDKAALTITGAQTEDEAIYFCALWYSNHFWVFGGGTKLTVL
B17: 184 RAGE-1 (antibody, V domains shown)
VH: QVQLQQSGAELVRPGTSVKVSCKASGYAFTNYLIEWVKQRPGQGLEWIGMINPGSGGTNYNEKFKGKATLTADKSSSTAYMQLSSLTSDDSAVYFCARGRGGHYRYFDVWGAGTTVTVSS
VL: DIVLTQSPASLAVSLGQRATISCRASKSVSTSGYSYMHWYQQKPGQPPKLLIYLASHLESGVPARFSGSGSGTDFSLNIHPVEEEDAATYYCQHSRELPWTFGGGTKLEIK
B18: 316 RAGE-1 (antibody, V domains shown)
VH: QVQLQQSGPELVRPGASVKMSCKASGYTFTSYWMHWVKQRPGQGLEWIGMIDPSNSETRLNQKFKDKATLNVDKSSNTAYMQLSSLTSEDSAVYYCARNFYGSSLRVWGAGTTVTVSS
VL: DIVLTQSPASLAVSLGQRATISCRASKSVSISGYSYLHWNQQKPGQSPKLLIYLASNLESGVPARFSGSGSGTDFTLNIHPVEEEDAATYYCQHSRELPYTFGGGTKLEIK
B19: 183 RAGE-1 (antibody, V domains shown)
VH: EVQLQQSGTVLARPGASVKMSCKASGYSFTSYWMHWVKQRPGQGLEWIGAIFPGNSDTTYNQKFKGKAKLTAVTSASTAYMELSSLTNEDSAVYYCTGLRRGFPYWGQGTLVTVSV
VL: NIVMTQSPKSMSMSVGERVTLSCKASENVGTYVSWYQQKPEQSPKLLIYGASNRYTGVPDRFTGSGSATDFTLTISSVQAEDLADYHCGQSYSYPYTFGGGTKLEIK
B20: 326 RAGE-1 (antibody, V domains shown)
VH: EVKLVESGGGLVKPGGSLKLSCAASGFAFSSYDMSWVRQTPEKRLEWVATISSGGSYTSYPDSVQGRFTISRDNARNTLYLQMSSLRSEDTALYYCASSQLPPYAMDYWGQGTSVTVSS
VL: DIVMTQSQKFMSTSVGDRVSITCKASQNVGTAVAWYQQKPGQSPKLLIYSASNRYTGVPDRFTGSGSGTDFTLTISNMQSEDLADYFCQQYSSYPLLTFGAGTKLELK
B21: 140 RAGE-1 (antibody, V domains shown)
VH: QVQLQQPGAELVKPGASVRLSCKASGYTFTSYWMHWVKQRPGQGLEWIGEINPSNGRTNYNEKFKSKATLTVDKSSSTAYMQLSSLTSEDSAVYYCARDGLGYRPIAMDYWGQGTSVTVSS
VL: QIVLTQSPAIMSASPGEKVTISCSASSSVSYMYWYQQKPGSSPKPWIYRTSNLASGVPARFSGSGSGTSYSLTISSMEAEDAATYYCQQYHSYPPMYTFGGGTKLEIK

For one assay, the target named is Cyno sRAGE (Cyno). Description: Human/Cyno/rat cross reactivity, Table 1.
Turning to B1, the binding result is recorded as “binds”.
Same read-out and setting: with B2 the entry was “binds”.

Another assay concerns the target Cyno sRAGE (Cyno). Description: Human/Cyno/rat/mouse cross reactivity, Table 1.
As to B1, the binding result is listed as “binds”.

The target of the next assay is Cyno sRAGE (Cyno). Description: ELISA, O.D. 450 nm, one bar per species; plate format and antibody concentration not given.
In the case of B3, the binding result is listed as “binds”.
Consider B1, for which the binding entry is “binds”.
Still for that read-out and setting: as for B4, the entry is “binds”; as for B5, “binds”; as for B6, “binds”.
Still for that read-out and setting: with B7 the entry was “binds”.
Same read-out and setting: with B8 the entry was “binds”; with B9, “binds”; with B10, “binds”.
With B11, the binding result is “binds”.
As to B12, the binding result is reported as “binds”.
On the same count and under the same terms, with B13 the entry was “binds”.
On the same count and under the same terms, as for B2, the entry is “binds”; as for B14, “binds”.
In the case of B15, the binding entry is on record as “binds”.
Regarding B16, the binding result is on record as “binds”.
Same read-out and setting: as for B17, the entry is “binds”.
Same read-out and setting: with B18 the entry was “binds”; with B19, “binds”; with B20, “binds”.
On the same count and under the same terms, as for B21, the entry is “binds”.
